In all, about 31,000 sequences went through this assay and about 1,400 (4.5%) were called active.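 Rule for the calls: active = median seed-adjusted z-score above 1 or below -1; inactive = the rest.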 The list shows a part of the results.

The experiment is described as follows: Novel Modifiers of Survival Motor Neuron (SMN) Protein: Gene Identification via Genome-wide siRNA Screen.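 Note: luminescence tracks full-length SMN protein made from the SMN2 reporter.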 Conditions: HEK293T SMN2-luciferase reporter, siRNA knockdown, 72 h; actives lie on both sides. The source says:
Spinal muscular atrophy (SMA) is the most common neuromuscular autosomal recessive disorder and one of the leading genetic causes of infant death. SMA results from mutations inducing loss of function or deletion in the survival of motor neuron-1 gene (SMN1), leading to deficiency of the survival motor neuron (SMN) protein. Although a second nearly identical gene, SMN2, is retained in humans, its expression primarily produces an aberrantly spliced isoform that is largely unstable and quickly degraded. We performed a genome-wide RNAi screen using a cell-based reporter assay to identify genes and pathways that modulate SMN protein stability. The screen identified over 200 genes that led to the greatest increase or decrease in luciferase expression.
Using HEK293T cells stably expressing a luciferase reporter that combines the promoter and splicing based cassettes in tandem with the major portion of the native SMN2 cDNA with luciferase, we performed a genome-wide RNAi screen to identify modulators of SMN protein levels. Luciferase is expressed when full-length SMN protein is generated with luminescence signal proportional to SMN protein levels. Our luciferase-based reporter assay was used to screen Ambion Silencer Select Human Druggable Genome siRNA library (10418 genes, 3 unique siRNAs per gene) using lipid-based reverse transfection.
Briefly, 1 pmol of each siRNA was spotted to a well of a 384-well plate (Corning, Corning, NY) and 20 microL of serum-free DMEM containing […] of Lipofectamine RNAiMax (Life Technologies, Carlsbad, CA) was then added to each well. Transfected cells were maintained at 37 degrees C in 5% CO2 for 72 hours, 20 microL of ONE-Glo Reagent (Promega) was added to wells for luciferase quantification. Raw luminescence reads were normalized to Ambion(R) Silencer(R) Negative Control #2 siRNA, then log10 transformed. A robust statistical measure of median absolute deviation (MAD) to standardize siRNA activities from each screen. Common Seed Analysis was used to help prioritize clean hits as opposed to those appearing to arise from seed based off-target effects. Candidate modulators were defined as the genes having a MAD score greater than 1.0 or less than -1.0.
On the technique in general: Reporter assays use an easily measured gene product as a stand-in for the process of interest.
On to CAGACACUAUUUACCAUAUTT against ART4, for which the median seed-adjusted z-score was inactive: -0.0808.

Consider GCGAGACACUUGUAGUCCATT against ANGPT4, for which the median seed-adjusted z-score was inactive: 0. The result for GGAAAUUGCUUACAGGAAATT against ARSJ reads inactive: -0.0978; that for CCAACACUUUUGACCUUGATT against SLC6A20, inactive: -0.306; that for GCAAGGACCCAACAACCAATT against TTC9, inactive: -0.173. The result for GCAGUGUAAUGGUAUCCGATT against VLDLR reads inactive: 0.0487. GGUCAUCUUCGUGAUCCUUTT against SSTR4: the median seed-adjusted z-score is inactive: -0.00217. Take AGAAUUUGCUGAAAUGACUTT against MGC17403: the median seed-adjusted z-score is inactive: 0.204. For GCAUCGACGUGAUCACCAUTT against GPR26 the value was active: -1.33. For CAAUACACUUCACAAUUGATT against PECAM1 the value was inactive: 0.0717. For CCACUAGUCUGACGGAUAATT against RIPK1 the value was inactive: -0.0157.

For the sequence GAACCAAGCAAGGACUAUATT against GPATCH2, the median seed-adjusted z-score is inactive: 0.0828. For GUUGCUCAGCGUAUCCAAATT against POLI the value was inactive: 0.857; for CCUAAACUGCUUAAACGAUTT against MTMR12, inactive: 0.419. The result for GGCCUGAAGAGGGAUGAGATT against EDAR reads inactive: 0.137; that for GGACGUGACCAAGAUCCUATT against DPP6, inactive: 0.0505.

For the sequence CCAUCCGAGUGACCUUAAATT against CYB5B, the median seed-adjusted z-score was inactive: 0. The result for CCUCCACUCGAUUCAGCGATT against MMP28 reads inactive: 0.862. For GAACCACAAUGGUCAGCUATT against GAD2 the value was inactive: 0.0588; for CCAACUUAAUAGUCAACUATT against ELAVL2, inactive: -0.077; for CCCGCAGGGUUAAAAAGGATT against CYP2A7, inactive: 0.342. For GUCUGCUUUGUAUAGAUAATT against KLRC3, the median seed-adjusted z-score was inactive: 0.833.

As for CCAUGUCAGUCCUAGGAAATT against ATRIP, the median seed-adjusted z-score is inactive: 0.353. For GCUUUGUGGUGUGGAGUAUTT against LTB4R the value was inactive: 0.498; for GGCUAAGUGCUGUCAUUCATT against HACE1, inactive: 0; for AGGAGAUUCUUGCAAUUAATT against CES2, inactive: -0.47. Regarding CAACCGAAGCACAAAAGUUTT against ELL2, the median seed-adjusted z-score is inactive: 0.459. For GAACCUUACUUCAUACCUATT against HAT1 the value was inactive: -0.622; for GGUAGGAGUUAAAAGAUUATT against SRA1, inactive: 0.677.

On to GCAAGGUUCUGAGCAAGCUTT against APOA5, for which the median seed-adjusted z-score was inactive: -0.791.

In the case of CGGUAUAAGCUGGUAGAUATT against EVPL, the median seed-adjusted z-score was inactive: -0.146. As for ACAUUUAGCAGUAAGAAGATT against CCL13, the median seed-adjusted z-score was inactive: 0.135. For GCACUUACUCCAACGAGGATT against PPP1R9B the value was inactive: -0.244; for GAGUUACUACUUAGACAGATT against SMAD4, inactive: 0.0746; for GGAUUAAGCCCUUCGAAGATT against SOCS5, inactive: 0.312. For GAUUGAGAAUUCUAUUGUATT against UTP6 the value was inactive: -0.253. For GCUCCUCGGCAGAUCAAUATT against CYFIP1 the value was inactive: -0.377; for GUAAGGAUAUUUUGAGUUATT against RNF130, inactive: -0.21. Turning to ACUAGCCUAUUAUUCCAAATT against VGLL2, the median seed-adjusted z-score was inactive: -0.0234.

In the case of CCAGCACACCUUACCGCUATT against PREB, the median seed-adjusted z-score was inactive: 0.182. The result for UGAACAAACCAUACCUGUUTT against PRSS22 reads inactive: -0.565; that for GCCUAGUGCCCGAAGUGAATT against F11R, inactive: -0.329; that for GGAACAACGAGAUGCAGAATT against BDKRB2, inactive: -0.311.

Turning to CCCUAUCAGUCAUAUUGGATT against DRD1, the median seed-adjusted z-score was inactive: -0.508. Turning to CUCCAUUGCUGAGAUCUAUTT against NAPA, the median seed-adjusted z-score is inactive: -0.563. The result for GGUCGAAUACAAAUGCGAATT against GNB4 reads inactive: 0.015. For GAUCAAUUCCAAUCCCAGATT against HTR3E the value was inactive: -0.717. The result for GAGGCCGCAUAUUACGAAATT against ASPA reads inactive: -0.138.

As to CCAAGGACCAGGUAGCUAATT against HSP90AA1, the median seed-adjusted z-score was inactive: -0.323. For the sequence CCCGGGUCAUCAUCAAUGATT against ENC1, the median seed-adjusted z-score was inactive: -0.132. For GGUUAUGCAAGAUAGACGATT against KIF5B the value was inactive: 0.162. The result for GAAGCUCAAGGUCAAAUCATT against HSPBP1 reads inactive: 0.368; that for CCUUUGCCCUGGGAAUCCATT against SLCO4A1, inactive: -0.0802; that for GCAGGGUAAUAUAUUUGGATT against POU4F3, inactive: 0.

For the origin of these results see PubChem BioAssay AID1347426 (Functional Genomics Laboratory (NCATS/FGL), 2020).
